This assay deals with Halo-PERP (PERP fused to an N-terminal HaloTag) (UniProt Q96FX8). Description: affinity purification with mass spectrometry; HaloTag Mammalian Pull-Down System; 2 mg Mel202 lysate (HaloTag or Halo-PERP, 24 h post-transfection) on HaloLink resin at 4 °C overnight; five washes in TBS with 0.05% IGEPAL CA-360; elution by ProTEV, then SDS; three independent experiments.

Results are given in words; binding and its absence hold for the method and conditions named. Binding seen in cells or lysates may run through a third protein. Here binding means that the protein was enriched with, or labelled near, the bait; the list need not be complete.

“SERCA2b (sarco/endoplasmic reticulum ATPase 2, isoform b) (from UniProt P16615-1 1-1042)”: the binding result was “binds”.

For the origin of these results see publication PMC6718399.
